According to patent US8071287B2, “Pharmaceutical and therapeutic applications relating to a type 9 adenylyl cyclase Polymorphism in asthma and reversible bronchial obstruction” (priority 2005, dated 2011):
For at least one compound, name, drawing or mass did not settle the structure.

Key:
asthmatic children = assay: CAMP clinical cohort: bronchodilator response (FEV1) stratified by AC9 genotype; type: in vivo, human; conditions: on budesonide, P=0.005
From the text: The study cohort consisted of pediatric patients who participated in the Childhood Asthma Management Program (CAMP). The study was a multicenter, randomized, trial comparing regularly scheduled inhalation treatment with the corticosteroid budesonide, the putative mast-cell “stabilizer” nedocromil, and placebo. The study design has been previously published in “Long-term effects of budesonide or nedocromil in children with asthma” N. Engl. J. Med., 343, 1054-1063 (2000). […] Once per year a methacholine challenge was performed to ascertain bronchial hyperresponsiveness. The current study utilized archived DNA from patients who participated in the CAMP DNA Ancillary Study. Because of potential population stratification issues (the allele frequency of Met772 is ˜0.30 in Caucasians and ˜0.15 in African Americans) and the small number of African American children enrolled in CAMP (14%), the current study was confined to Caucasian children. […]
Bronchodilator response is defined as FEV1 after bronchodilator minus FEV1 before bronchodilator divided by FEV1 before bronchodilator times 100 [(Post-FEV1−Pre-FEV1)/(Pre-FEV1)×100]. […] To test for interaction between steroid treatment and Ile772Met genotypic status, treatment specific strata was evaluated and included interaction terms in the models. […]

AC9 = assay: Western blot of AC9 expression in transfected A431 cells; type: cell-based, human; conditions: dexamethasone treatment
WT (Ile772) AC9 = molecular target: T1, WT (Ile772) AC9 (Homo sapiens, UniProt O60503); conditions: AC9 in general, remark in the text; cited from earlier work
T1 construct: expressed in transfected cells
T1 sequence (O60503 1-1353): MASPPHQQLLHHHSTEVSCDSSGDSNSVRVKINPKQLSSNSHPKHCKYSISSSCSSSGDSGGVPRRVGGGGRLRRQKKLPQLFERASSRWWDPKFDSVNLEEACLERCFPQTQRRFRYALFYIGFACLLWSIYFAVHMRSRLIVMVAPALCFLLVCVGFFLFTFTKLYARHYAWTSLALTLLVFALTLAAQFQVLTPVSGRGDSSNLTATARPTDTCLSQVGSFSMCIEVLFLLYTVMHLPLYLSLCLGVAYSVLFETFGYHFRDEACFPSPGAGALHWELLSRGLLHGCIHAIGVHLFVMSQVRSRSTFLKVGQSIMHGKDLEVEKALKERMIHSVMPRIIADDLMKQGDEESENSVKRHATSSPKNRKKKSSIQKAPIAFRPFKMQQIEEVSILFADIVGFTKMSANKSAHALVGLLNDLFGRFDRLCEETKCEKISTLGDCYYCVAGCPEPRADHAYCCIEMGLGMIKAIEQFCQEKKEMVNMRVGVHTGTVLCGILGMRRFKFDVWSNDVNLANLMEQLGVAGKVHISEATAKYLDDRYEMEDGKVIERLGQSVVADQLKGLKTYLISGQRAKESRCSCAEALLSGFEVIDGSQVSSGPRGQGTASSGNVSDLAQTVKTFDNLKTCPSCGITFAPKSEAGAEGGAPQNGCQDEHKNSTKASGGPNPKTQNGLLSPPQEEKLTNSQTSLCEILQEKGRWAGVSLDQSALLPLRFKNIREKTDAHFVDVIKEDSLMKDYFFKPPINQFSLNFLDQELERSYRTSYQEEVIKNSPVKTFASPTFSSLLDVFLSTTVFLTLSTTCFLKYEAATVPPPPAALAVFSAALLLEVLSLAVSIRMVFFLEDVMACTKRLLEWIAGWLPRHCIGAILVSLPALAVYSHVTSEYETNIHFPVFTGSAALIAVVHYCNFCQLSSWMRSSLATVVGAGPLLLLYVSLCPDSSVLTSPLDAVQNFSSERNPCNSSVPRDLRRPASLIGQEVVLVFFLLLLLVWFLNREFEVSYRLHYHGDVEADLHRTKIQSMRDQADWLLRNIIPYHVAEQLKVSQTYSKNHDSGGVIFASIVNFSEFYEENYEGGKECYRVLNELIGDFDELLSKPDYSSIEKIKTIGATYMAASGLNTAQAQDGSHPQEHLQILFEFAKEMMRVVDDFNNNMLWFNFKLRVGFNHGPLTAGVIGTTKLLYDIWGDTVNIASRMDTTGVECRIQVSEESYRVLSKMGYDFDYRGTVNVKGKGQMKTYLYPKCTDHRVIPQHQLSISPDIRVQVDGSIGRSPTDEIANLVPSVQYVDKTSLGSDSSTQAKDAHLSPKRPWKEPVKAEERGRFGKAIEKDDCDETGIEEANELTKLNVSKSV

With `CCCC1O[C@@H]2C[C@H]3[C@@H]4CCC5=CC(=O)C=C[C@]5(C)[C@H]4[C@@H](O)C[C@]3(C)[C@]2(C(=O)CO)O1` (stereo partly shown) [budesonide] the “FEV1 in Met772 carriers” value (asthmatic children) was “significant improvement”.
In the case of `C[C@@H]1C[C@H]2[C@@H]3CCC4=CC(=O)C=C[C@]4(C)[C@@]3(F)[C@@H](O)C[C@]2(C)[C@@]1(O)C(=O)CO` [dexamethasone], the “expression of the AC9 variant (Met772)” value (AC9; Met772 line) is reported as “not changed” and the “expression of WT AC9” value (AC9; WT line) is reported as “not changed”.
For `C=C[C@@]1(C)CC(=O)[C@]2(O)[C@@]3(C)[C@@H](O)CCC(C)(C)[C@@H]3[C@H](O)[C@H](OC(C)=O)[C@@]2(C)O1` [forskolin], the “stimulation of AC9” value (WT (Ile772) AC9) is listed as “not stimulated”.
